Data published in publication PMC5018195.

By UniProt entry, the sequences of proteins in these tests, tags left out.
UniProt P63015: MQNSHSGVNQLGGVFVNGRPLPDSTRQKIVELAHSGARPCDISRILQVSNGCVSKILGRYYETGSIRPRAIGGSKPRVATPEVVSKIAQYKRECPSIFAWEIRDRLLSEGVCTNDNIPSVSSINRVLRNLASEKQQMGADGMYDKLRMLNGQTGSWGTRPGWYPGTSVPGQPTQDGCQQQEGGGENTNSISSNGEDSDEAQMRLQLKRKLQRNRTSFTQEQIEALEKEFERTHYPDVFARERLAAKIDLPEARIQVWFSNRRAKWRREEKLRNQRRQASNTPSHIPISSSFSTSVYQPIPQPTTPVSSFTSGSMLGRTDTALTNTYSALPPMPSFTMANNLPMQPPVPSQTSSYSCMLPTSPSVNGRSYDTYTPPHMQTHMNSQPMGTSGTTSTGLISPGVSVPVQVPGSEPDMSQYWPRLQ
UniProt Q99JF8: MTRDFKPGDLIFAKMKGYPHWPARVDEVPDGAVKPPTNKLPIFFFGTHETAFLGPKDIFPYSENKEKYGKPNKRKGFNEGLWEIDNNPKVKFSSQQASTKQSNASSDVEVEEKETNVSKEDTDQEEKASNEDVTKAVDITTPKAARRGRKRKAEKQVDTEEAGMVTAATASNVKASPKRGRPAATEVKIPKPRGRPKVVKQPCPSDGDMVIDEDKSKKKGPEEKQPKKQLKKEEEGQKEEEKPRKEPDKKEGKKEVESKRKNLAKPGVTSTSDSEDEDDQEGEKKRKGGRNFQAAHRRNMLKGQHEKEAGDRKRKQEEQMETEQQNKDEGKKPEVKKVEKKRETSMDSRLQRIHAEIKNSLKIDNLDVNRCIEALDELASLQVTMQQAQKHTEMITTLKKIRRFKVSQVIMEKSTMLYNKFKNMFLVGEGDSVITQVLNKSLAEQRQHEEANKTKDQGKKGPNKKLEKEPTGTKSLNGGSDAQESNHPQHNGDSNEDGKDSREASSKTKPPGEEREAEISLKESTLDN
UniProt Q91ZW3: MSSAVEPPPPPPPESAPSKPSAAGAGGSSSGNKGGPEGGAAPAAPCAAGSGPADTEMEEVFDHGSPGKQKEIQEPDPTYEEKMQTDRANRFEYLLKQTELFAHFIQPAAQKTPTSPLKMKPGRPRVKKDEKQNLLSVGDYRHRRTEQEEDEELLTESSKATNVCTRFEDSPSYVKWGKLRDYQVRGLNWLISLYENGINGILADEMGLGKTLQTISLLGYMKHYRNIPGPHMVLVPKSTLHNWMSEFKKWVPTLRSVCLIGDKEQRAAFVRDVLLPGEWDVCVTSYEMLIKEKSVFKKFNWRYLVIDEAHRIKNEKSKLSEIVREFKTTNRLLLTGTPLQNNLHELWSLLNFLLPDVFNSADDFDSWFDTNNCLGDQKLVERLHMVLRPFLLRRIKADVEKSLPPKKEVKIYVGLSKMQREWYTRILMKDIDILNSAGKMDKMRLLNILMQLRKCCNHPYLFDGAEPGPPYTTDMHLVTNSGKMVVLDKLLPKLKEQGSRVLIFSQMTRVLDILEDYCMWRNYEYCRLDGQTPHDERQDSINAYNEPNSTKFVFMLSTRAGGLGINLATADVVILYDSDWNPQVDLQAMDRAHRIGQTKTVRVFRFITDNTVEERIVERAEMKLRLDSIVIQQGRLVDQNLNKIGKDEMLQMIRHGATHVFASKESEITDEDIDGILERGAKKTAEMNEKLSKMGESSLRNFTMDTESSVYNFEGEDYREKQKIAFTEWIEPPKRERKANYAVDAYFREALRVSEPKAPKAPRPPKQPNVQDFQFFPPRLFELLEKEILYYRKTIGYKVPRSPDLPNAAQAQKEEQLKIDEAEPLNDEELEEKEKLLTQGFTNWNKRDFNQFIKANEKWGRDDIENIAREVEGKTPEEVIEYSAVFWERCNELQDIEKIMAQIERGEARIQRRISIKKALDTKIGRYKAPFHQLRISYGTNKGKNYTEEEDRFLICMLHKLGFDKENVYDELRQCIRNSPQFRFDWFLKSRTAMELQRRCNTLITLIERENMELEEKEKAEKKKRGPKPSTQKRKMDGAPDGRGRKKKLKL
UniProt O88379: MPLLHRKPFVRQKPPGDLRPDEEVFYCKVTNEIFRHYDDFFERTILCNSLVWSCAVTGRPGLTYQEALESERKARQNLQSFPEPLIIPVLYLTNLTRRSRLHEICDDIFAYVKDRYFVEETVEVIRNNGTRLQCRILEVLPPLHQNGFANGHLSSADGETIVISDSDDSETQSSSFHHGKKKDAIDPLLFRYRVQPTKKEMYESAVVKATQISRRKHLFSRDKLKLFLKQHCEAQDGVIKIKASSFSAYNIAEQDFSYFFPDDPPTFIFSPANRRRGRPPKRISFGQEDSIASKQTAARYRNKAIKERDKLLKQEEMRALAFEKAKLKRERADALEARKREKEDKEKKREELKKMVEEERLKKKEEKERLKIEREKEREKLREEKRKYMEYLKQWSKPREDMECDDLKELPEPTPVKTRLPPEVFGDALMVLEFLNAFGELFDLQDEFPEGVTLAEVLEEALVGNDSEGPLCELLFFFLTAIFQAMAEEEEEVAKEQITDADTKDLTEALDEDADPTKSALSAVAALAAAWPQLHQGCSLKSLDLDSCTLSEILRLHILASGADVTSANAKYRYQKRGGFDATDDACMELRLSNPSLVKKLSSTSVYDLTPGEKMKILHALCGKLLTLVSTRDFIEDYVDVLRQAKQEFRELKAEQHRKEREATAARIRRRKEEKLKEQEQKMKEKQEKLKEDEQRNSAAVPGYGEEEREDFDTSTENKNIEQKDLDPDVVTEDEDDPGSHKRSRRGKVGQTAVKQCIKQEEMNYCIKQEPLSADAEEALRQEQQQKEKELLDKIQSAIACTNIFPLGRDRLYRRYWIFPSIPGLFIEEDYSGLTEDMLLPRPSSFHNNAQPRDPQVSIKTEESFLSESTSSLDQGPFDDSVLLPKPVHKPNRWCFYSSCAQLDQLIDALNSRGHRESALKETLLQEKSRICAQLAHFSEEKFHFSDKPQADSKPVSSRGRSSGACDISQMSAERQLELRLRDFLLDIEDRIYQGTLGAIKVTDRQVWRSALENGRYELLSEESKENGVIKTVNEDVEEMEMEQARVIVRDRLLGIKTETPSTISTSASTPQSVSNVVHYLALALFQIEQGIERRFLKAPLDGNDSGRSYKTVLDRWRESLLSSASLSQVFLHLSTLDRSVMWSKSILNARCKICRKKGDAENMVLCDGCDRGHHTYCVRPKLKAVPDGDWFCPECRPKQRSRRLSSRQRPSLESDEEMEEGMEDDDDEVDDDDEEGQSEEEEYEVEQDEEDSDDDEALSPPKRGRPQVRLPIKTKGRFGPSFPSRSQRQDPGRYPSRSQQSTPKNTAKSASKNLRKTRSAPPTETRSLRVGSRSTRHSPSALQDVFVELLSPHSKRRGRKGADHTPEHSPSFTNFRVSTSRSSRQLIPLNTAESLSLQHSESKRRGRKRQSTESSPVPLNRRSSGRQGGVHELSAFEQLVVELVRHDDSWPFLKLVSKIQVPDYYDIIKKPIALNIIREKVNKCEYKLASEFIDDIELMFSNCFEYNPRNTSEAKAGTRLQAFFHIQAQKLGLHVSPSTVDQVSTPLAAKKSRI
UniProt Q99LT0: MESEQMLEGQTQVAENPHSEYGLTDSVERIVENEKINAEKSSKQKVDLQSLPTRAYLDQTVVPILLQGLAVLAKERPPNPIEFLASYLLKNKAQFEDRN
UniProt O08550: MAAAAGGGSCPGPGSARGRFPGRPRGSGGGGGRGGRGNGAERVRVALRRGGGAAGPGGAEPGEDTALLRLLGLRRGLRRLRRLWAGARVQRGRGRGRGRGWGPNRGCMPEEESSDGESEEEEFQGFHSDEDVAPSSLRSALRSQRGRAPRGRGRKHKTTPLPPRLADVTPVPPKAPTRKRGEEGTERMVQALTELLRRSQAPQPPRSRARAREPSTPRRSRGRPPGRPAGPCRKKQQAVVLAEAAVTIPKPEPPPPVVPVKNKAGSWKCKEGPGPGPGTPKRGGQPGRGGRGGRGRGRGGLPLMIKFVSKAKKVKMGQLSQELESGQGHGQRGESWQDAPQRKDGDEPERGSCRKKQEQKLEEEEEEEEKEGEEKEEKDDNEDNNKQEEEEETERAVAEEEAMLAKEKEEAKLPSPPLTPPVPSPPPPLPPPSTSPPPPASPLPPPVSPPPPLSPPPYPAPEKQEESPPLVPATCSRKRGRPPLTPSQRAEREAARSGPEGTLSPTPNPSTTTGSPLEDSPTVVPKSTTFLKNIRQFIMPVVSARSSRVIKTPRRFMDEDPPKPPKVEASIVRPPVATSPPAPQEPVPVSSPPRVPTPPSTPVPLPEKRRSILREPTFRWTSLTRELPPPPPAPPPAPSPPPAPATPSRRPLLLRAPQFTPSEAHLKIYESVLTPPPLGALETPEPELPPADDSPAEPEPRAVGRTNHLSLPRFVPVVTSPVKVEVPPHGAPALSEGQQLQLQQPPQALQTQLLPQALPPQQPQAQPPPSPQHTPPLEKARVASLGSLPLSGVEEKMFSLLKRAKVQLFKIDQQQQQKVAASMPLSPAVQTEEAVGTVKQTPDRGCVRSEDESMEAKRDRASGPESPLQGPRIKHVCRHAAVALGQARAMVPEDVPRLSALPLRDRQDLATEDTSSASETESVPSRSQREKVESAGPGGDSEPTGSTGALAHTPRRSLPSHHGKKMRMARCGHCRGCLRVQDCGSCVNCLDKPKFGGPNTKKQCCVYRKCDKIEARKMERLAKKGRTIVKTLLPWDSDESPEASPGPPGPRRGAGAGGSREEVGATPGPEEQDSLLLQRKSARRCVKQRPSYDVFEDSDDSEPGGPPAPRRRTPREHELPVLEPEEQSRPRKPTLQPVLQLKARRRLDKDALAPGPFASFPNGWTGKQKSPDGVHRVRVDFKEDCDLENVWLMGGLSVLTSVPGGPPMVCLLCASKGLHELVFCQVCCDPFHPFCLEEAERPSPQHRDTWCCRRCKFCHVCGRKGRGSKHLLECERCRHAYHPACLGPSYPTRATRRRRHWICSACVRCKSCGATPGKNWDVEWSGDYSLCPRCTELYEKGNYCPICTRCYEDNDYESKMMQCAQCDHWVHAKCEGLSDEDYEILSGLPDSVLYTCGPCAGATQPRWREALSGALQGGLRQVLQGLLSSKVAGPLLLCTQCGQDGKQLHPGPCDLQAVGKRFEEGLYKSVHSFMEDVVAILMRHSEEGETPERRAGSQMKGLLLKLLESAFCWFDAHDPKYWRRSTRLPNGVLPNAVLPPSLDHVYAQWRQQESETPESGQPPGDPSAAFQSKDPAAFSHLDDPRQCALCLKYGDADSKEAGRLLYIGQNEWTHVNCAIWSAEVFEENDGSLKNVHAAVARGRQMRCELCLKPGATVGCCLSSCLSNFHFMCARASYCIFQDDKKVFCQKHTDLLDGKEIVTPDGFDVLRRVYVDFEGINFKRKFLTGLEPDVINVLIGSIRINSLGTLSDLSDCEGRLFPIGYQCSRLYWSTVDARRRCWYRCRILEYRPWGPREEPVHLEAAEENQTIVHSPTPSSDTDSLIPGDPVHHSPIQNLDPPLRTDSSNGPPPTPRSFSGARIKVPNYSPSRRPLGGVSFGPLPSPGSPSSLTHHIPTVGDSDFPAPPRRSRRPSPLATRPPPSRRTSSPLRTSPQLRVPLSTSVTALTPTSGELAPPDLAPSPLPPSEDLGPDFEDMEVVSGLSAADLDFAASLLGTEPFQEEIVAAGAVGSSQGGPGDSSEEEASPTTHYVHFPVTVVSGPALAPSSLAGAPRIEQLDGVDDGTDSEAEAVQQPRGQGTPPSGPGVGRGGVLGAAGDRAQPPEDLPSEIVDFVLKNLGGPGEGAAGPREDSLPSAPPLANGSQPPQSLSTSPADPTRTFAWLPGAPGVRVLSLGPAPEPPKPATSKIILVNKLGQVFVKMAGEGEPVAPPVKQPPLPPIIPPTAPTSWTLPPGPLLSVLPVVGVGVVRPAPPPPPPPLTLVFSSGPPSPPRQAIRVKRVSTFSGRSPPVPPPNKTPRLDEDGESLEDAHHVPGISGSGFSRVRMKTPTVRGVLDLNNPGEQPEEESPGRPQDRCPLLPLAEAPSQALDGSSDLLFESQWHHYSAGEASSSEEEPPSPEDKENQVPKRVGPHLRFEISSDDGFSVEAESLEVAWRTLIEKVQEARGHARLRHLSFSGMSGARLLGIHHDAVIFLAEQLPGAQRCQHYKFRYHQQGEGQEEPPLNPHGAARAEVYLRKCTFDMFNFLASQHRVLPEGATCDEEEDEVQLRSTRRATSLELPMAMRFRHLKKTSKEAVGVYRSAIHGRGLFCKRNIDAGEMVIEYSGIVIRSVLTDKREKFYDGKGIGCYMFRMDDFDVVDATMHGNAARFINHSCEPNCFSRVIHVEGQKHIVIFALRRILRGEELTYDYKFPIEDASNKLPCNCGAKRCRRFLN

Target: Pax6 (mouse (endogenous in αTN4)) (UniProt P63015)
Assay: affinity purification with mass spectrometry; Pax6 antibody on Protein G Dynabeads, αTN4 nuclear extract in BC200 (200 mM KCl), 4 °C, washes BC200 and BC500; SDS-PAGE bands, LC-MS/MS; 99 % protein probability, at least 3 unique peptides

Molecule | binding
Ash2l (from UniProt Q91X20 1-623) | binds
PTIP (from UniProt Q6NZQ4 1-1056) | no binding
Psip1 (from UniProt Q99JF8 1-528) | no binding
Rbbp5 (from UniProt Q8BX09 1-538) | binds
Snf2h (Smarca5) (from UniProt Q91ZW3 1-1051) (enzyme) | binds

Other lines, results leading:

binding | Molecule
binds | Acf1 (from UniProt O88379 1-1555)
binds | CBP (from UniProt P45481 1-2441) (enzyme)
binds | Dpy30 (from UniProt Q99LT0 1-99)
binds | Mll1 (from UniProt P55200 1-3966) (enzyme)
binds | Mll2 (from UniProt O08550 1-2713) (enzyme)
binds | Wstf (protein, UniProt Q9Z277 1-1479) MAPLLGRKPFPLVKPLPGEEPLFTIPHTQEAFRTREEYEARLERYSERIWTCKSTGSSQLTHKEAWEEEQEVAELLKEEFPNWYEKLVLEMVHHNTASLEKLVDSAWLEIMTKYAVGEECDFEVGKEKMLKVKIVKIHPLEKVDEEAVEKKSDGACDSPSSDKENSSQMAQDLQKKETVVKEDEGRRESINDRARRSPRKLPTSLKKGERKWAPPKFLPHKYDVKLQNEDKIISNVPADSLIRTERPPNKEILRYFIRHNALRAGTGENAPWVVEDELVKKYSLPSKFSDFLLDPYKYMTLNPSTKRRNTGSPDRKPSKKPKRDSSSLSSPLNPKLWCHVHLEKSLNGPPLKVKNSKNSKSPEEHLEGVMKIMSPNNNKLHSFHIPKKGPAAKKPGKHSDKPLKAKGRGKGILNGQKSTGNSKSPSKCVKTPKTKMKQMTLLDMAKGTQKMTRTPRSSGGVPRSSGKPHKHLPPAALHLIAYYKENKDKEDKKSALSCVISKTARLLSNEDRARLPEELRALVQKRYELLEHKKRWASMSEEQRKEYLKKKRQELKERLREKAKERREREMLERLEKQKRFEDQELGGRNLPAFRLVDTPEGLPNTLFGDVALVVEFLSCYSGLLLPDAQYPITAVSLMEALSADKGGFLYLNRVLVILLQTLLQDEIAEDYGELGMKLSEIPLTLHSVSELVRLCLRRCDVQEDSEGSETDDNKDSTPFEDNEVQDEFLEKLETSEFFELTSEEKLRILTALCHRILMTYSVQDHMETRQQVSAELWKERLAVLKEENDKKRAEKQKRKEMEARNKENGKEENVLGKVDRKKEIVKIEQQVEVEADDMISAVKSRRLLSMQAKRKREIQERETKVRLEREAEEERMRKHKAAAEKAFQEGIAKAKLVLRRTPIGTDRNHNRYWLFSNEVPGLFIEKGWVHNSIDYRFKHHRKDHSNLPDDDYCPRSKKANLGKNASVNAHHGPALEAVETTVPKQGQNLWFLCDSQKELDELLSCLHPQGIRESQLKERLEKRYQEITHSIYLARKPNLGLKSCDGNQELLNFLRSDLIEVATRLQKGGLGYMEGTSEFEARVISLEKLKDFGECVIALQASVIKKFLQGFMAPKQKKRKLQSEDSTKSEEVDEEKKMVEEAKVASALEKWKTAIREAQTFSRMHVLLGMLDACIKWDMSAENARCKVCRKKGEDDKLILCDECNKAFHLFCLRPALYEVPDGEWQCPACQPPTARRNSRGRNYTEESTSEGSEGDESGEEEEEEEEEEEEEEDYEVAGLRLRPRKTIRGKQSVIPAARPGRPPGKKSHPARRSRPKDDPEVDDLVLQTKRISRRQSLELQKCEDILHKLVKYRFSWPFREPVTRDEAEDYYDVIEHPMDFQTIQNKCSCGNYRSVQEFLTDMKQVFANAELYNCRGSHVLSCMEKTEQCLLALLQKHLPGHPYVRRKRRKFPDRLADDEGDSDSESVGQSRGRRQKK
no binding | Pax3/7BP (official name: Paxbp1) (protein, UniProt P58501 1-919) MFRKARRVNVRKRNDSEEEERERDEEQEPPPLLPPPASGEEPGPGGGDRAPAGESLLGPGPLPPPPSAHHPGLGAEAGGGISGGAEPGNGLKPRKRPRENKEVPRASLLSFQDEEEENEEVFKVKKSSYSKKIVKLLKKEYKEDLEKSKIKTELNTAADSDQPLDKTCHAKDTNPEDGVVISEHGEDEMDMESEKEEEKPKAGGAFSNALSSLNVLRPGEIPDAAFIHAARKKRQLARELGDFTPHDSEPGKGRLVREDENDASDDEDDDEKRRIVFSVKEKSQRQKIAEEIGIEGSDDDALVTGEQDEELSRWEQEQIRKGINIPQVQASQPSEVNVYYQNTYQTMPYGASYGIPYSYTAYGSSDAKSQKTDNTVPFKTPSNEMAPVTIDLVKRQLKDRLDSMKELHKTNQQQHEKHLQSRVDSTRAIERLEGSSGGIGERYKFLQEMRGYVQDLLECFSEKVPLINELESAIHQLYKQRASRLVQRRQDDIKDESSEFSSHSNKALMAPNLDSFGRDRALYQEHAKRRIAEREARRTRRRQAREQTGQMADHLEGLSSDDEETSTDITNFNLEKDRILKESSKVFEDVLESFYSIDCIKAQFEAWRSKYYMSYKDAYIGLCLPKLFNPLIRLQLLTWTPLEAKCRDFETMLWFESLLFYGCEDREQEKDEADVALLPTIVEKVILPKLTVIAETMWDPFSTTQTSRMVGITMKLINGYPSVVNADNKNTQVYLKALLLRMRRTLDDDVFMPLYPKNVLENKNSGPYLFFQRQFWSSVKLLGNFLQWYGIFSNKTLQELSIDGLLNRYILMAFQNSEYGDDSIRKAQNVINCFPKQWFVNLKGERTISQLENFCRYLVHLADTIYRNSIGCSDVEKRNARENIKQIVKLLASVRALDHAISVASDHNVKEVKSLIEGK

Results are given in words; binding and its absence hold for the method and conditions named. In cells and extracts the contact can be indirect. Here binding means that the protein was enriched with, or labelled near, the bait; the list need not be complete. A no says only that the protein was not detected with the bait.
